± gives the uncertainty stated by the source. Many of these values have a large error.
Experiment: self-splicing fitness, log relative to wild type (ln ratio); higher = more splicing; Tetrahymena group I intron in knt gene, E. coli kanamycin selection, DiMSum; sequences stand for … in CUCUCU…GGAGGGAAAAGUUAUCAGGCAUGCACCUGGUAGCUAGUCUUUAAACCAAUAGAUUGCAUCGGUUUAAAAGGCAAGACCGUCAAAUUGCGGGAAAGGGGUCAACAGCCGUUCAGUACCAAGUCUCAGGGGAAACUUUGAGAUGGCCUUGCAAAGGGUAUGGUAAUAAGCUGACGGACAUGGUCCUAACCACGCAGCCAAGUCCUAAGUCAACAGAUCUUCUGUUGAUAUGGAUGCAGUUCACAGACUAAAUGUCGGUCGGGGAAGAUGUAUUCUUCUCAUAAGAUAUAGUCGGACCUCUCCUUAAUGGGAGCUAGCGGAUGAAGUGAUGCAACACUGGAGCCGCUGGGAACUAAUUUGUAUGCGAAAGUAUAUUGAUUAGUUUUGGAGUACUCGUGGUCG
In short: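 The eight P1ex-region nucleotides of an intron in the knt kanamycin-resistance gene on pET-22b(+) were all randomised and the library put into E. coli BL21(DE3). Six replicate transformations were grown overnight at 37°C or 30°C on LB agar with or without 25 μg/mL kanamycin, together with 100 μg/mL carbenicillin, 50 μM IPTG and 0.2% rhamnose. Colonies were pooled and amplicon-sequenced on an Illumina HiSeq 2500. Fitness from DiMSum is the error-weighted combination of wild-type-normalised replicate fold changes, kanamycin over none.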

Sequence	self-splicing fitness (ln) (30 °C)	self-splicing fitness (ln) (37 °C)
CAGAAGCAAUAUUACGCCAA	-3.35 ± 0.38	-3.13 ± 0.61
GGGGAGCAAUAUUACGGGUC	-3.58 ± 0.76	-3.29 ± 0.6
UCCGAGCAAUAUUACGUCAC		-1.57 ± 0.55
UGGGAGCAAUAUUACGGAAC		-0.234 ± 1.4
GAGCAGCAAUAUUACGCACC	-2.67 ± 0.39	-1.82 ± 0.48
GUCGAGCAAUAUUACGCGGU	-4.21 ± 0.51	
GGGGAGCAAUAUUACGUGGU	-1.73 ± 0.65	-2.85 ± 0.76
GGAGAGCAAUAUUACGGAUG	-4.33 ± 0.72	
UAAUAGCAAUAUUACGGUUC		-2.69 ± 0.62
GACUAGCAAUAUUACGGACU	-0.117 ± 0.11	-0.611 ± 0.14
GGCGAGCAAUAUUACGGUUU	-1.06 ± 0.076	0.0414 ± 0.11
CUGUAGCAAUAUUACGAGUA	-3.34 ± 1	-4.15 ± 1
UUGCAGCAAUAUUACGACGC		-2.24 ± 0.58
AUAUAGCAAUAUUACGCGAA	-4.02 ± 0.52	
AUCAAGCAAUAUUACGCACG	-2.1 ± 0.15	-2.28 ± 0.18
AGGGAGCAAUAUUACGCCCC		0.417 ± 1.2
CUGCAGCAAUAUUACGCCUA	-3.46 ± 0.74	
UCAGAGCAAUAUUACGCAGG	-5.53 ± 1	
CCCAAGCAAUAUUACGGAGG		-2.96 ± 0.53
UAAGAGCAAUAUUACGCGAC	-4.02 ± 0.73	-2.52 ± 0.54
UCCGAGCAAUAUUACGUAAA		-3.53 ± 1
CCAGAGCAAUAUUACGAUUA		-1.79 ± 0.53
ACCGAGCAAUAUUACGAAAC	-3.03 ± 0.53	
UAAUAGCAAUAUUACGUAAC	-4.03 ± 0.51	

Sequence	self-splicing fitness (ln) (30 °C)	self-splicing fitness (ln) (37 °C)
UUAGAGCAAUAUUACGUGGC	-3.43 ± 0.73	-2.31 ± 0.63
CGCUAGCAAUAUUACGCAGC		-2.8 ± 0.33
UUUUAGCAAUAUUACGCCUC	-2.35 ± 0.8	
UCGGAGCAAUAUUACGUUCC	-0.354 ± 0.53	-1.79 ± 1.2
AAGGAGCAAUAUUACGGACA	-4.04 ± 1	-3.34 ± 0.6
GCUUAGCAAUAUUACGAAAC	-1.22 ± 0.16	-0.448 ± 0.24
UCCGAGCAAUAUUACGGCCG		-3.49 ± 1
AGGGAGCAAUAUUACGAAGA	-0.226 ± 0.82	-2.86 ± 1.1
UUGCAGCAAUAUUACGCAAC	-5.62 ± 0.71	
CGAGAGCAAUAUUACGGAGC		-2.67 ± 0.54
GGCUAGCAAUAUUACGAUCC		-0.566 ± 0.87
CGCUAGCAAUAUUACGGAGA	-3.33 ± 0.61	-2.2 ± 0.36
AGGGAGCAAUAUUACGCCUG	-1.96 ± 1.2	-0.147 ± 0.93
AGGAAGCAAUAUUACGUAGC	-1.27 ± 0.82	
UGGAAGCAAUAUUACGGUCC	-2.67 ± 0.15	-1.51 ± 0.14
AUGUAGCAAUAUUACGCGGA	-2.41 ± 0.3	-1.09 ± 0.2
CGGUAGCAAUAUUACGCUCA	-0.279 ± 0.15	-0.399 ± 0.21
GAGGAGCAAUAUUACGAAUC		-0.826 ± 0.81
AACCAGCAAUAUUACGGGUA	-0.823 ± 0.045	-0.376 ± 0.055
UUAUAGCAAUAUUACGCCAA	-1.84 ± 0.54	
UGAUAGCAAUAUUACGCGUC		-3.16 ± 0.53
CCGAAGCAAUAUUACGCGAA	-3.2 ± 0.76	
GGGCAGCAAUAUUACGCCCU		-2.44 ± 0.76
CUAAAGCAAUAUUACGCCCU	-2.94 ± 0.84	-1.47 ± 1.2

Sequence	self-splicing fitness (ln) (30 °C)	self-splicing fitness (ln) (37 °C)
UGAGAGCAAUAUUACGGUGC		-2.52 ± 1.1
UAGCAGCAAUAUUACGUACC		-1.77 ± 0.7
CUAUAGCAAUAUUACGCUCA	-3.46 ± 1.1	-3.1 ± 0.61
GGUUAGCAAUAUUACGGGGG	-3.7 ± 1.1	
CCGAAGCAAUAUUACGCUUA	-1.32 ± 1.4	-3.83 ± 1
UUUAAGCAAUAUUACGCCAC		-0.687 ± 0.87
AGGAAGCAAUAUUACGCUUC		-2.08 ± 1.1
UCGCAGCAAUAUUACGAGAU	-3.01 ± 0.25	-1.86 ± 0.25
UCAGAGCAAUAUUACGAUAU	-3.12 ± 1.1	
UCAGAGCAAUAUUACGUUCC	-3.84 ± 0.47	-2.57 ± 0.49
GAACAGCAAUAUUACGCUGC	-4.48 ± 0.52	
GGGUAGCAAUAUUACGGAAC	-0.98 ± 0.11	-1.49 ± 0.19
UUUUAGCAAUAUUACGAAAC	-3.34 ± 0.78	
CGGGAGCAAUAUUACGCUAA		-3.15 ± 0.73
GCUUAGCAAUAUUACGGCCC		0.25 ± 0.57
UCGGAGCAAUAUUACGCAAG	-3.24 ± 0.62	-2.23 ± 0.43
GUGGAGCAAUAUUACGACAC	-3.83 ± 0.73	-1.6 ± 0.53
UUUGAGCAAUAUUACGUUCA	-3.55 ± 0.6	
GUCUAGCAAUAUUACGCGGC	-3.99 ± 0.54	
UCUUAGCAAUAUUACGGAUG	-3.74 ± 0.28	-1.76 ± 0.17
UCCAAGCAAUAUUACGCAUG	-4.8 ± 0.31	-2.27 ± 0.19
UAGCAGCAAUAUUACGCGAU	-2.94 ± 0.2	-3.07 ± 0.35
AACGAGCAAUAUUACGAGUU	-3.48 ± 0.32	-2.1 ± 0.22
CUCUAGCAAUAUUACGAAAC		-1.9 ± 0.51

Sequence	self-splicing fitness (ln) (30 °C)	self-splicing fitness (ln) (37 °C)
CUGGAGCAAUAUUACGCUCG		-2.01 ± 0.5
CCCUAGCAAUAUUACGCAAG	-3.65 ± 0.28	-2.06 ± 0.23
ACCUAGCAAUAUUACGCGGG		-3.02 ± 0.61
GGAGAGCAAUAUUACGAACA	-1.43 ± 0.55	
UAAAAGCAAUAUUACGCCAC	-3.09 ± 0.53	
GCGGAGCAAUAUUACGCCAU	-2.65 ± 1.1	
CUUGAGCAAUAUUACGGCUC	-1.93 ± 0.54	
AACGAGCAAUAUUACGACCC		0.0469 ± 0.68
CCUGAGCAAUAUUACGACCC		-2.08 ± 1.1
CUCUAGCAAUAUUACGCCUA	-3.21 ± 0.67	-3.39 ± 0.6
CCGCAGCAAUAUUACGCCGA	-2.35 ± 0.19	-1.42 ± 0.14
UUUAAGCAAUAUUACGAUAC	-3.42 ± 0.52	-2.24 ± 0.78
AUGUAGCAAUAUUACGCCGC	-2.4 ± 0.56	-1.69 ± 1.2
ACUGAGCAAUAUUACGUUUC	-3.19 ± 0.27	-2.6 ± 0.23
CAAUAGCAAUAUUACGUUCC	-2.6 ± 0.26	-2.13 ± 0.35
AUGGAGCAAUAUUACGAGGA	-4.4 ± 1	-1.98 ± 0.81
UUUCAGCAAUAUUACGCGAA	-2.03 ± 0.14	-1.21 ± 0.14
ACGGAGCAAUAUUACGCACC	-4.59 ± 0.72	-0.785 ± 0.57
CGUUAGCAAUAUUACGAGUC	-3.26 ± 0.51	-3.06 ± 0.61
UGAGAGCAAUAUUACGUCAG	-3.98 ± 0.59	
ACUUAGCAAUAUUACGAGGC		-2.4 ± 0.77

Reformatted in CSV form: entries from further up.
Sequence,self-splicing fitness (ln) (30 °C),self-splicing fitness (ln) (37 °C)
AACGAGCAAUAUUACGAGUU,-3.48 ± 0.32,-2.1 ± 0.22
CUCUAGCAAUAUUACGAAAC,,-1.9 ± 0.51
CUGGAGCAAUAUUACGCUCG,,-2.01 ± 0.5
CCCUAGCAAUAUUACGCAAG,-3.65 ± 0.28,-2.06 ± 0.23
ACCUAGCAAUAUUACGCGGG,,-3.02 ± 0.61
GGAGAGCAAUAUUACGAACA,-1.43 ± 0.55,
UAAAAGCAAUAUUACGCCAC,-3.09 ± 0.53,
GCGGAGCAAUAUUACGCCAU,-2.65 ± 1.1,
CUUGAGCAAUAUUACGGCUC,-1.93 ± 0.54,
CUCUAGCAAUAUUACGCCUA,-3.21 ± 0.67,-3.39 ± 0.6
CCGCAGCAAUAUUACGCCGA,-2.35 ± 0.19,-1.42 ± 0.14
UUUAAGCAAUAUUACGAUAC,-3.42 ± 0.52,-2.24 ± 0.78
AUGUAGCAAUAUUACGCCGC,-2.4 ± 0.56,-1.69 ± 1.2
CAAUAGCAAUAUUACGUUCC,-2.6 ± 0.26,-2.13 ± 0.35
AUGGAGCAAUAUUACGAGGA,-4.4 ± 1,-1.98 ± 0.81
UUUCAGCAAUAUUACGCGAA,-2.03 ± 0.14,-1.21 ± 0.14
ACGGAGCAAUAUUACGCACC,-4.59 ± 0.72,-0.785 ± 0.57
CGUUAGCAAUAUUACGAGUC,-3.26 ± 0.51,-3.06 ± 0.61
UGAGAGCAAUAUUACGUCAG,-3.98 ± 0.59,
ACUUAGCAAUAUUACGAGGC,,-2.4 ± 0.77
